No constants are given. Whether binding was seen depends on the method and setting. Binding seen in cells or lysates may run through a third protein. A yes stands for co-enrichment or nearness to the bait. Other partners may have been found.
T1: SATB2 (mouse (endogenous in cortex)) (UniProt Q8VI24)
T1 sequence: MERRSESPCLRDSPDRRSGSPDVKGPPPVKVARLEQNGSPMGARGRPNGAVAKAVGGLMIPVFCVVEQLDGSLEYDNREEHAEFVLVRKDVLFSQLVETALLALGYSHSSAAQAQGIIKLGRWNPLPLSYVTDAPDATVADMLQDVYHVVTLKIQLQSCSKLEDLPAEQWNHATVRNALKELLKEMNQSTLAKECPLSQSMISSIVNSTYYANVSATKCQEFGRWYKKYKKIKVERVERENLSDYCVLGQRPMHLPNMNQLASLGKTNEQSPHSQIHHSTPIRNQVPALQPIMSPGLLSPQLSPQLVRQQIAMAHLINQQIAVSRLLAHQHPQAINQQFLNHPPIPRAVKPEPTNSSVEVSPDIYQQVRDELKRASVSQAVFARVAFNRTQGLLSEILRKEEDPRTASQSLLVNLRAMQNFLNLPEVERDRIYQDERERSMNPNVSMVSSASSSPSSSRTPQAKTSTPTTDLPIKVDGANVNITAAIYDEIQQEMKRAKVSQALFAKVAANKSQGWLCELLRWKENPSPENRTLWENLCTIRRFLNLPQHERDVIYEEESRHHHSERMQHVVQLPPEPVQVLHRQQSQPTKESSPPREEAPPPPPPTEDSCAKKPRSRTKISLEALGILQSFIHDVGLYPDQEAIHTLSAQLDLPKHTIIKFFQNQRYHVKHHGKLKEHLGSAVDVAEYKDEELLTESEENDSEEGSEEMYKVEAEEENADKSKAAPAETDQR

The chains behind the UniProt entries cited, without tags or fusion partners.
UniProt Q8K019: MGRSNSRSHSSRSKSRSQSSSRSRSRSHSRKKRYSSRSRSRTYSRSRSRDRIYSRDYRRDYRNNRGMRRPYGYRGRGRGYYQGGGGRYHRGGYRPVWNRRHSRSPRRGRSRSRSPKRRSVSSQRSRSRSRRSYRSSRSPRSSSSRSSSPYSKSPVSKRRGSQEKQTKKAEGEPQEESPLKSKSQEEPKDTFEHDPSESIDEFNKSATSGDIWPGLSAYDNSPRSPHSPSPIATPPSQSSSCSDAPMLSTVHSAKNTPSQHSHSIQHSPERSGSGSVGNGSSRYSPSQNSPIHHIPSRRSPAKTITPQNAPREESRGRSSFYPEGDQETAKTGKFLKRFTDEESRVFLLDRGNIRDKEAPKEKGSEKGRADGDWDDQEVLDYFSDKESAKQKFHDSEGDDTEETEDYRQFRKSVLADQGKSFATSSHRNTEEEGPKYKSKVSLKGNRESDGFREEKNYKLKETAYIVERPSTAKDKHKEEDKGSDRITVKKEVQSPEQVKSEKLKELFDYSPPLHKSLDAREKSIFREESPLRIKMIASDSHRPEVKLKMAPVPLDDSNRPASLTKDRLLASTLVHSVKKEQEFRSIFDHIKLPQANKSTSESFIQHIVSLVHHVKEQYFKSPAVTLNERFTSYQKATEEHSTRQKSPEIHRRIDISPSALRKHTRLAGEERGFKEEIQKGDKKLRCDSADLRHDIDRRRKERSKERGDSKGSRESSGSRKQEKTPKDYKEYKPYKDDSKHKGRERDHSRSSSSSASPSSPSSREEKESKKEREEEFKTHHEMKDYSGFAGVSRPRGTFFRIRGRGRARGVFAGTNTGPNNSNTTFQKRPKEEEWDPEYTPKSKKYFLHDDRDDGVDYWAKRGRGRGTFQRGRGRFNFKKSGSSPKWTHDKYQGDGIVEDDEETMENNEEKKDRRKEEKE
UniProt Q9QVP9: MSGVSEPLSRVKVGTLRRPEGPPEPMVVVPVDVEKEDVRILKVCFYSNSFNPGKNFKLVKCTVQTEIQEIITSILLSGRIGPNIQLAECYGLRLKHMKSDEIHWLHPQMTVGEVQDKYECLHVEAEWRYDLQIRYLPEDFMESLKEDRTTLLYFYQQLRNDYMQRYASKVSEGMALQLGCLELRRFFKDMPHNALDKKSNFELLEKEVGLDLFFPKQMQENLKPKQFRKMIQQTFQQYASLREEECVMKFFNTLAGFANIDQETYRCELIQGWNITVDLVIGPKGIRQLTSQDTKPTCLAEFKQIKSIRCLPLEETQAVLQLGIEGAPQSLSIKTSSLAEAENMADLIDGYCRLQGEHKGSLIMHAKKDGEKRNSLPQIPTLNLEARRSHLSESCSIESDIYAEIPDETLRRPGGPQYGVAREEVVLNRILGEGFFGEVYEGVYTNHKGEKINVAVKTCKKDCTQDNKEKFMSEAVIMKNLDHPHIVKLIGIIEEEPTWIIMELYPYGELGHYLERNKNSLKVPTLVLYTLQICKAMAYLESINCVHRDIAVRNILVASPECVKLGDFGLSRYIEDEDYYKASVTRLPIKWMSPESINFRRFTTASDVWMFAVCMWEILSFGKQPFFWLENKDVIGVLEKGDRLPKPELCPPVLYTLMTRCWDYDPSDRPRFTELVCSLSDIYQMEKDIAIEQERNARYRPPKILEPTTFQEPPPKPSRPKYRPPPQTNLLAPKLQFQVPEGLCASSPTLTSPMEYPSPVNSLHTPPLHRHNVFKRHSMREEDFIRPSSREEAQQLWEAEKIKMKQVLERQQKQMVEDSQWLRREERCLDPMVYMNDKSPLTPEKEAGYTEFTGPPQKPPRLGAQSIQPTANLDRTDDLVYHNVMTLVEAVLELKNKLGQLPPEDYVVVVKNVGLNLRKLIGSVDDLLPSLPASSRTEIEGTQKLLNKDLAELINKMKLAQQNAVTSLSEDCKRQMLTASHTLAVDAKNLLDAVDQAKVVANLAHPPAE
UniProt Q00PI9: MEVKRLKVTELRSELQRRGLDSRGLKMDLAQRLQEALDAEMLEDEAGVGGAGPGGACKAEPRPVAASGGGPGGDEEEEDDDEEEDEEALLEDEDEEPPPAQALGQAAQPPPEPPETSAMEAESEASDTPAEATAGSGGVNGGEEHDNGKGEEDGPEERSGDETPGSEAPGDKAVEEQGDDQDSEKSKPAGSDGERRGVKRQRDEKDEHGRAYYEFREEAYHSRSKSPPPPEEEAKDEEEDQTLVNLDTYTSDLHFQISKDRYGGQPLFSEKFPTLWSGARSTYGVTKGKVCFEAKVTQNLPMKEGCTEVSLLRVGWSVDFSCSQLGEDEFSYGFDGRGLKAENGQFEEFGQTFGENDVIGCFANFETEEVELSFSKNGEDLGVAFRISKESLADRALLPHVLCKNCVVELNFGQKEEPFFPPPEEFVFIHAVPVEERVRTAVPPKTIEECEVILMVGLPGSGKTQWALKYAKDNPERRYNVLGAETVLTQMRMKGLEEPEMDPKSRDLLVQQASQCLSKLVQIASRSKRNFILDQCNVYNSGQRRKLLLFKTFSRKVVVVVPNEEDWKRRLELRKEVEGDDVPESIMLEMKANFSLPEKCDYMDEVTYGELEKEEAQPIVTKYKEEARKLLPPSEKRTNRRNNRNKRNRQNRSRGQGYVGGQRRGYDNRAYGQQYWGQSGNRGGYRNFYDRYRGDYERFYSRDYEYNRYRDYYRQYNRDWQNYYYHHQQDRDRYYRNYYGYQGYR
UniProt P11531: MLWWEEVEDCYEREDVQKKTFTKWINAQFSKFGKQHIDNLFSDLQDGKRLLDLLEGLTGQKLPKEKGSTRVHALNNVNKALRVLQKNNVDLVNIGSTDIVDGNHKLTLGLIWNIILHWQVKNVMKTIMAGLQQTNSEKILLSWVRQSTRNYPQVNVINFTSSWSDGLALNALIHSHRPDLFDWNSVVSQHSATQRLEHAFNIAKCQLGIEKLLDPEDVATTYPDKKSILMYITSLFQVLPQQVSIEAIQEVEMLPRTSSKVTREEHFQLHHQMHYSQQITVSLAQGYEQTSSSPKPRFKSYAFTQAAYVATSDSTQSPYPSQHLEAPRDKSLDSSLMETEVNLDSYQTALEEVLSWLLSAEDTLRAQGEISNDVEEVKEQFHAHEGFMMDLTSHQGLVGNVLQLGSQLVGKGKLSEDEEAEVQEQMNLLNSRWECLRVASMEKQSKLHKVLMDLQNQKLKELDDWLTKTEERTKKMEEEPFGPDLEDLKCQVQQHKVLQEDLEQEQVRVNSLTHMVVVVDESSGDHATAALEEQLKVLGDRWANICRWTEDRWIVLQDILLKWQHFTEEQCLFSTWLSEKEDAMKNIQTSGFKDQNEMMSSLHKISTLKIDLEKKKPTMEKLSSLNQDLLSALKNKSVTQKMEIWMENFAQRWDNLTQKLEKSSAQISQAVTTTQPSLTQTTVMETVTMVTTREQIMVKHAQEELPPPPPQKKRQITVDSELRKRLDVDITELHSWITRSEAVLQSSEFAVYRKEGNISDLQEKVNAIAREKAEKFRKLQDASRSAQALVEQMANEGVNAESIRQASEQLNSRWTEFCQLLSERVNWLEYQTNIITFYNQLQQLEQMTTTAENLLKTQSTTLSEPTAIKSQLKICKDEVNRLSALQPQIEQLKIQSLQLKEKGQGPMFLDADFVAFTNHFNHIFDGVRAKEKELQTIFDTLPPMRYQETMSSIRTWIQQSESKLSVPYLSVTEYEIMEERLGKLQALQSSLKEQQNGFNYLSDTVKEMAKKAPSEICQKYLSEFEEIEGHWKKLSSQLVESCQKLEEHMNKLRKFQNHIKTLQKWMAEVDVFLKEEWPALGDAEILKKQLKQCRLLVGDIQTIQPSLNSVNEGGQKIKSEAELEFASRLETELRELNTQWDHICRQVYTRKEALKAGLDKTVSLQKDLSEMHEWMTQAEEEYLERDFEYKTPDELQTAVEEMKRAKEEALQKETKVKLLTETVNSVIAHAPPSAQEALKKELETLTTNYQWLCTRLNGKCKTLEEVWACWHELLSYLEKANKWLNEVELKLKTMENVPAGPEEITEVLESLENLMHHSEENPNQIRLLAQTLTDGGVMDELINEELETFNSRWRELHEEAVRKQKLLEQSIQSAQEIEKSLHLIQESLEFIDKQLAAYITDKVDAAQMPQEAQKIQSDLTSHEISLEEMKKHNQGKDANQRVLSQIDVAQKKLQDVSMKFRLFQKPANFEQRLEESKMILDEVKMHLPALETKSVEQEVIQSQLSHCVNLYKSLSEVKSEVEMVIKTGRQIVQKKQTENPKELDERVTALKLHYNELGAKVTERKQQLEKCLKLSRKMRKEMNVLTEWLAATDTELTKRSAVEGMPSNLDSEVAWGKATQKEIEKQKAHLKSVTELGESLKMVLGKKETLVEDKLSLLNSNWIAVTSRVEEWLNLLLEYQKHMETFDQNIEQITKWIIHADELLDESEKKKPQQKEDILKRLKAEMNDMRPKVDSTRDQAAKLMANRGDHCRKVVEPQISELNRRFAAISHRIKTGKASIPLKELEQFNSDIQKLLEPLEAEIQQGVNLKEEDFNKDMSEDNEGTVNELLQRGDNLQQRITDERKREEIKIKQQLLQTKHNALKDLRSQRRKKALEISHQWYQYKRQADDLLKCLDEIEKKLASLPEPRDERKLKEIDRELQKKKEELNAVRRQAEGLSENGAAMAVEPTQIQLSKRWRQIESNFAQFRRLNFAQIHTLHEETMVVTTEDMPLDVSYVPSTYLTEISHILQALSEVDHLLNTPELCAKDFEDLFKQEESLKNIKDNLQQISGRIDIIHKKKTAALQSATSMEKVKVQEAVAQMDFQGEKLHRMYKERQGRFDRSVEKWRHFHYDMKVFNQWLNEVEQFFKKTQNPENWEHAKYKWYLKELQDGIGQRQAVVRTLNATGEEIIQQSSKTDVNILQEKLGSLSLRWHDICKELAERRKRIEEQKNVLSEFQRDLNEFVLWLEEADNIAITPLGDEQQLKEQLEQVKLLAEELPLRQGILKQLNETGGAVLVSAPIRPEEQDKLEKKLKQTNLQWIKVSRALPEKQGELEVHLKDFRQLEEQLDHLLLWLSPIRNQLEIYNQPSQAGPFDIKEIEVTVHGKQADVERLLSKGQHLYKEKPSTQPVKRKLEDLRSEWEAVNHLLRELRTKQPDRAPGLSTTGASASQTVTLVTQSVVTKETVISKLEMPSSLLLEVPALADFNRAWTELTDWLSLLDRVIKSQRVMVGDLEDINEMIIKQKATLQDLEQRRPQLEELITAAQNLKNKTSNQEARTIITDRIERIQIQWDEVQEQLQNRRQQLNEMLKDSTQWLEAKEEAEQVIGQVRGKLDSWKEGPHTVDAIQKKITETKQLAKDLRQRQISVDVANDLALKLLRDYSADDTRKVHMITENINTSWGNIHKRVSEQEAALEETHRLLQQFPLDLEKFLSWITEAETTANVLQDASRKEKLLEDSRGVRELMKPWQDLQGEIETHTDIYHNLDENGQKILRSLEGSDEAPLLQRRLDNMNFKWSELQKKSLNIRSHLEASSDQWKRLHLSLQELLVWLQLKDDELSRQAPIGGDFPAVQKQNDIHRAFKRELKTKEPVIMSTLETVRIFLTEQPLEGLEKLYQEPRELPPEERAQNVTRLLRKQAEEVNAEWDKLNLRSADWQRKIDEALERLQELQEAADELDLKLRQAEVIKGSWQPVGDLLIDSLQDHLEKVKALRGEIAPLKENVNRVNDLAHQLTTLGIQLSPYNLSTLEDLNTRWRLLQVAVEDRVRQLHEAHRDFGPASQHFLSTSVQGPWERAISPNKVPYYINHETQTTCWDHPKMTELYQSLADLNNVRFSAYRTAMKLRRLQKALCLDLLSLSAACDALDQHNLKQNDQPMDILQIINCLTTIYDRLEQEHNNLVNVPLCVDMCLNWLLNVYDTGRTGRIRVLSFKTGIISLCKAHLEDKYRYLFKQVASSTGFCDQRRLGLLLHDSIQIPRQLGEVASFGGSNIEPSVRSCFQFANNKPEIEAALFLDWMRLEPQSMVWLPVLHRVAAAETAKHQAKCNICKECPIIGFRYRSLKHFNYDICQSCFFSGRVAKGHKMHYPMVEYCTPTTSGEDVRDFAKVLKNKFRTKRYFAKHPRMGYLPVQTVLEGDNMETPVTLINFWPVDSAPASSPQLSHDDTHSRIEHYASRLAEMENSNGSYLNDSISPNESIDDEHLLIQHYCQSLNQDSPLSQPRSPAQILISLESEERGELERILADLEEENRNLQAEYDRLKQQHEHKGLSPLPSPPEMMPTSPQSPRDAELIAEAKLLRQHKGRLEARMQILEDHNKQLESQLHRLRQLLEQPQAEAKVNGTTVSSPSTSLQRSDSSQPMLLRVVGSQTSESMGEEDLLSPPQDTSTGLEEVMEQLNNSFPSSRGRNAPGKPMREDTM

B1: FMN1 (protein, UniProt Q05860 1-1466)
chain: MEGTHCTLQLHNPIAELCYISFYLPKGEVRGFSYKGTVTLDRSNNAFHNCYQVREGPDITSLSQQPNEHPGDIFFKQTPTKNILTELYKLTAEKERLLDSLLRSDNILGVSMGSQEGKLQELSVILATGDEYFQSAGNWRRELPVSSLIRRSTQENKKPRRSGRRRESPEELRQKRTRRKGRGCQESAFQMGKDQVCSSSSLSFRARPNLRLLEERGNLVPRGTLTSSLRRRESCPANILRTPDADLAFGNSGRTSEDTDLEGPLSPDSSPTEVGDADVGGQLKSSHQQEPPQPNVSESHGKHAGAERWSSRTRKSKSLERTCSKKPVSKVVAKIQEPSAPVKRIVRAHHDGKGRVAYGPETQTEFIPKADFLTLPGGETETHSSGRLEEEQPGIKSLRSSAPERASITKEPASTEAAVNKVLRKVIESEKLDEATEGKRLGFSLNTRATHTFPETRSQRKAGLPQSGHKFLLLDLPHTVGPDSPQPKCDEKKPTPQVPTALGMVFNNSSPQSSAHKRLSPVPSPLSPRCPSPQQHHRILLLPPLPSEGEVVFNEYPSRKNDVSSGFPSADTLEPSSTTKVTETKGASPTSLRASQTWLVSEEASEKGLGPEKITAPPQHQLPPGIASEGFPCDNFKEQTAKDLPNKDGGVWVPGYRAGPPCPFLLHEEKEKTSRSELYLDLNPDQSPTEQDDRTPGRLQAVWPPPKTKDTEEKVGLKYTEAEYQAAILHLKREHKEEIETLQAQFELKTFHIRGEHALVTARLEEAIENLKQQLGKRREGCEEMRDVCISTDDDCSPKAFRNVCIQTDRETFLKPCDAESKATRSSQIVPKKLTISLTQLSPSKDSKDIHAPFQTREGTSSSSQHKISPPAPPTPPPLPPPLIPPPPPLPPGLGPLPPAPPIPPVCPVSPPPPPPPPPPTPVPPSDGPPPPPPPPPPLPNVLALPNSGGPPPPPPPPPPGLAPPPPPGLSFGLSSSSSQYPRKPAIEPSCPMKPLYWTRIQINDKSQDAAPTLWDSLEEPHIRDTSEFEYLFSKDTTQQKKKPLSEAYEKKNKVKKIIKLLDGKRSQTVGILISSLHLEMKDIQQAIFTVDDSVVDLETLAALYENRAQEDELTKIRKYYETSKEEDLKLLDKPEQFLHELAQIPNFAERAQCIIFRAVFSEGITSLHRKVEIVTRASKGLLHMKSVKDILALILAFGNYMNGGNRTRGQADGYSLEILPKLKDVKSRDNGMNLVDYVVKYYLRYYDQCKHHDQEASCRGKDLFSLYFHIAVHPQRKSGLELKQEAGTDKSVFPLPEPQDFFLASQVKFEDLLKDLRKLKRQLEASEQQMKLVCKESPREYLQPFKDKLEEFFKKAKKEHKMEESHLENAQKSFETTVGYFGMKPKTGEKEVTPSYVFMVWFEFCSDFKTIWKRESKNISKERLKMAQASVSKLTSEKKVETKKINPTASLKERLRQKEASVATN
B2: CHMP3 (protein, UniProt Q9CQ10 1-224)
chain: MGLFGKTQEKPPKELVNEWSLKIRKEMRVVDRQIRDIQREEEKVKRSVKDAAKKGQKEVCVVLAKEMIRSRKAVSKLYASKAHMNSVLMGMKNQLAVLRVAGSLQKSTEVMKAMQSLVKIPEIQATMRELSKEMMKAGIIEEMLEDTFESMDDQEEMEEAAEMEIDRILFEITAGALGKAPSKVTDALPEPEPAGAMAASEEGEEEEDEEDLEAMQSRLATLRS
B3: Lamin B2 (protein, UniProt P21619 1-596)
chain: MASLPPHAGPATPLSPTRLSRLQEKEELRELNDRLAHYIDRVRALELENDRLLLRISEKEEVTTREVSGIKTLYESELADARRVLDETARERARLQIEIGKVQAELEEARKSAKKREGELTVAQGRVKDLESLFHRSEAELATALSDKQGLETEVAELRAQLAKAEDGHAVAKKQLEKETLMRVDLENRCQSLQEELAFSKSVFEEEVRETRRRHERRLVEVDSSRQQEYDFKMAQALEDLRSQHDEQVRLYRVELEQTYQAKLDNAKLLSDQNDKAAHAAREELKEARMRVESLSYQLLGLQKQASAAENHIHELEEALAGERDKFRKMLDAKEQEMTEVRDAMQQQLAEYQELLDIKLALDMEISAYRKLLEGEEERLKLSPSPSSRITISRATSSSSSSSGVGMSVGQGRGKRRRLETEDTSGSPSRASRVSSGSRLAQQTVATGVVNIDEVDPEGRFVRLKNSSDKDQSLGNWRIKRQVLEGEDIAYKFTPKYVLRAGQTVTVWAAGAGATHSPPSTLVWKSQTNWGPGESFRTALVSADGEEVAVKAAKHSSVQGRENGEEEEEEEAEFGEEDLFHQQGDPRTTSRGCRLM
B4: Lamin B1 (protein, UniProt P14733 1-588)
chain: MATATPVQQQRAGSRASAPATPLSPTRLSRLQEKEELRELNDRLAVYIDKVRSLETENSALQLQVTEREEVRGRELTGLKALYETELADARRALDDTARERAKLQIELGKFKAEHDQLLLNYAKKESDLSGAQIKLREYEAALNSKDAALATALGDKKSLEGDLEDLKDQIAQLEASLSAAKKQLADETLLKVDLENRCQSLTEDLEFRKNMYEEEINETRRKHETRLVEVDSGRQIEYEYKLAQALHEMREQHDAQVRLYKEELEQTYHAKLENARLSSEMNTSTVNSAREELMESRMRIESLSSQLSNLQKESRACLERIQELEDMLAKERDNSRRMLSDREREMAEIRDQMQQQLSDYEQLLDVKLALDMEISAYRKLLEGEEERLKLSPSPSSRVTVSRASSSRSVRTTRGKRKRVDVEESEASSSVSISHSASATGNVCIEEIDVDGKFIRLKNTSEQDQPMGGWEMIRKIGDTSVSYKYTSRYVLKAGQTVTVWAANAGVTASPPTDLIWKNQNSWGTGEDVKVILKNSQGEEVAQRSTVFKTTIPEEEEEEEEEPIGVAVEEERFHQQGAPRASNKSCAIM
B5: TSC22D4 (protein, UniProt Q9EQN3 1-387)
chain: MSGGKKKSSFQITSVTTDYEGPGSPGASDSPVPPALAGPPPRLPNGDPNPDPGGRGTPRNGSPPPGAPASRFRVVKLPQGLGEPYRRGRWTCVDVYERDLEPPSFGRLLEGIRGASGGTGGRSLDSRLELASLGISTPIPQPGLSQGPTSWLRPPPTSPGPQARSFTGGLGQLAGPGKAKVETPPLSASPPQQRPPGPGTGDSAQTLPSLRVEVESGGSAAATPPLSRRRDGAVRLRMELVAPAETGKVPPTDSRPNSPALYFDASLVHKSPDPFGAAAAQSLSLARSMLAISGHLDSDDDSGSGSLVGIDNKIEQAMDLVKSHLMFAVREEVEVLKEQIRDLAERNAALEQENGLLRALASPEQLAQLPSSGLPRLGPSAPNGPSI
B6: NOP58 (protein, UniProt Q6DFW4 1-536)
chain: MLVLFETSVGYAIFKVLNEKKLQEVDSLWKEFETPEKANKIVKLKHFEKFQDTAEALAAFTALMEGKINKQLKKVLKKIVKEAHEPLAVADAKLGGVIKEKLNLSCIHSPVVNELMRGIRSQMDGLIPGVEPREMAAMCLGLAHSLSRYRLKFSADKVDTMIVQAISLLDDLDKELNNYIMRCREWYGWHFPELGKIISDNLTYCKCLQKVGDRKNYASASLSEFLSEEVEAEVKAAAEISMGTEVSEEDICNILHLCTQVIEISEYRTQLYEYLQNRMMAIAPNVTVMVGELVGARLIAHAGSLLNLAKHAASTVQILGAEKALFRALKSRRDTPKYGLIYHASLVGQSSPKHKGKISRMLAAKTVLAIRYDAFGEDSSSAMGIENRAKLEARLRILEDRGIRKISGTGKALAKAEKYEHKSEVKTYDPSGDSTLPTCSKKRKIEEVDKEDEITEKKAKKAKIKIKAEVEEEMEEEEAEEEQVVEEEPTVKKKKKKDKKKHIKEEPLSEEEPCTSTAVPSPEKKKKKKKKKDAED
B7: NHP2L1 (protein, UniProt Q9D0T1 1-128)
chain: MTEADVNPKAYPLADAHLTKKLLDLVQQSCNYKQLRKGANEATKTLNRGISEFIVMAADAEPLEIILHLPLLCEDKNVPYVFVRSKQALGRACGVSRPVIACSVTIKEGSQLKQQIQSIQQSIERLLV

biological target: T1, SATB2 (mouse (endogenous in cortex)); experiment: affinity purification with mass spectrometry; endogenous SATB2 precipitated with anti-SATB2 on protein G Dynabeads from adult (three month-old) mouse cortical lysate (1 mg total protein, overnight 4°C; 25 mM Tris/HCl pH 7.4, 150 mM NaCl, 1% NP-40, 1 mM EDTA, 5% glycerol); Satb2 knock-out lysate as negative control; LC-MS

Row | binding | Molecule
1 | binds | BCLAF1 (from UniProt Q8K019 1-919)
2 | binds | PTK2B (from UniProt Q9QVP9 1-1009)
3 | binds | HNRNPU-like 2 (from UniProt Q00PI9 1-745)
4 | binds | scaffold attachment factor B1 (SAFB1) (from UniProt D3YXK2 1-937)
5 | binds | DMD (from UniProt P11531 1-3678)
6 | binds | B1
7 | binds | B2
8 | binds | B3
9 | binds | B4
10 | binds | B5

biological target: T1, SATB2 (mouse (endogenous in cortex)); experiment: affinity purification with mass spectrometry; endogenous SATB2 precipitated with anti-SATB2 on protein G Dynabeads from neonatal mouse cortical lysate (1 mg total protein, overnight 4°C; 25 mM Tris/HCl pH 7.4, 150 mM NaCl, 1% NP-40, 1 mM EDTA, 5% glycerol); Satb2 knock-out lysate as negative …; LC-MS

Row | binding | Molecule
11 | binds | B6
12 | binds | B7

— PMC6364870
